From publication PMC5322907
No constants are given. Whether binding was seen depends on the method and setting. In cells and extracts the contact can be indirect. Some results given as binding are weak or reduced against the parent protein; the word gives no strength. Tags and fused reporters may be left off the sequences shown.

T1: spPrp16p-HA (S. pombe) (UniProt Q9P774)
T1 sequence: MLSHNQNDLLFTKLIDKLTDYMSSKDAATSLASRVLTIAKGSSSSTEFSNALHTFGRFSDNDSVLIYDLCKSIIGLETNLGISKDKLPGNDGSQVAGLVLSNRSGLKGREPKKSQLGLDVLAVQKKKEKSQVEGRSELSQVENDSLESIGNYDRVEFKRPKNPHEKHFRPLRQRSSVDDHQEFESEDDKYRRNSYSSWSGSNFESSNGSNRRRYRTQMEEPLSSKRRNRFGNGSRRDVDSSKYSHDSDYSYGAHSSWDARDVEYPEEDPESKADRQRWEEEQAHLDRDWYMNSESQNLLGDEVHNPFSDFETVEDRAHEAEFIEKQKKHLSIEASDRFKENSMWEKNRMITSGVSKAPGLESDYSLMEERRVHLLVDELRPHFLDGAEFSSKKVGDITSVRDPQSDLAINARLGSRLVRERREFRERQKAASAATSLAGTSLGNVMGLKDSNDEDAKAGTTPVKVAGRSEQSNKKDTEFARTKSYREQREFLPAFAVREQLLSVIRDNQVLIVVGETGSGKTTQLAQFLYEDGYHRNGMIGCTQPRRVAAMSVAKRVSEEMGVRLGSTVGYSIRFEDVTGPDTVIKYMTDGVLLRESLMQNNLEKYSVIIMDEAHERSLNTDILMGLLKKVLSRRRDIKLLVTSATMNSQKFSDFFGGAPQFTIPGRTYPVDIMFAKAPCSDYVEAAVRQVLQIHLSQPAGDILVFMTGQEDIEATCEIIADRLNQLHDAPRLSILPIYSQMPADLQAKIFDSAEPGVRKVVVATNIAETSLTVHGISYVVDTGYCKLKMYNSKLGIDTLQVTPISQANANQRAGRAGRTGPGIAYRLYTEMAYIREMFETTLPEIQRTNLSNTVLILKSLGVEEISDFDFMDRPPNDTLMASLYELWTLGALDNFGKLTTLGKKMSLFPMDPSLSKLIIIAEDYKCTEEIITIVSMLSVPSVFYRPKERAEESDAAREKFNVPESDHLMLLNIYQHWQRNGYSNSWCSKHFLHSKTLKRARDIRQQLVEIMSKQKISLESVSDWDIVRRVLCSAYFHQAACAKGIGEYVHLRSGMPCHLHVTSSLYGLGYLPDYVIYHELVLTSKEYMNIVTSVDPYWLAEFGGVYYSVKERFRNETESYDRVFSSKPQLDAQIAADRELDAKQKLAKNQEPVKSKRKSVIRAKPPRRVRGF

T2: Cid12p-TAP (S. pombe) (UniProt O74518)
T2 sequence: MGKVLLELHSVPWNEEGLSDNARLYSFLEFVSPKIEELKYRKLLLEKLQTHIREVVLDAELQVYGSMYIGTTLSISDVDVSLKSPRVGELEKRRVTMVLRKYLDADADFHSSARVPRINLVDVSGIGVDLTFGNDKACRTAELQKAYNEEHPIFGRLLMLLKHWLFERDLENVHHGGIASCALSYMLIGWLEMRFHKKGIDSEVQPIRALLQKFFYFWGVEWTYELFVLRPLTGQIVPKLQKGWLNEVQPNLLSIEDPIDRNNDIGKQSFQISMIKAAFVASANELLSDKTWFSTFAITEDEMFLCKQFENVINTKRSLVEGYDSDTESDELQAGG


Columns and labels:
[1] = target: T1, spPrp16p-HA (S. pombe); assay: co-IP; spPrp16-HA immunoprecipitated with an anti-HA antibody from a S. pombe strain expressing spPrp16-HA and Chp1p-FLAG; western blot with anti-FLAG antibody
[2] = target: T2, Cid12p-TAP (S. pombe); assay: co-IP; Cid12-TAP immunoprecipitated with IgG-Sepharose beads from extracts of S. pombe cells expressing spPrp16p-HA and Cid12-TAP; samples treated with or without RNase A; western blot with anti-HA and anti-protein A antibody; Sepharose beads with no antibody as negative control

binding [1] | binding [2] | Binder
no binding | – | Chp1p-FLAG (protein, UniProt Q10103 1-960) MVSVKPLPDIDSNEGETDADVYEVEDILADRVNKNGINEYYIKWAGYDWYDNTWEPEQNLFGAEKVLKKWKKRKKLIAKGLLEPFDAEDNEAKKMKREKEILRQQRQKRKSELTQLSQKVKEKFKKMRKKPARRIVTIANDEEEEDDQTMDEDAFERKSMQGELKERNLTDKTSTLSTSFGETSPDVNPFYLSEWPTVTDSILLSKSLSSDAIPLKNGEIKSTMLMPSDSDNSVPGIQNSNNLENTGAFVENANSPQSNTPLSTFRHSSPLSLSPVITSDNDVANSLFFSNSTPLPSSLKIKKEAPKLETHTILVSDNSGSLTKQDILSYFAFIKGNIEVFFLKSPKKDKVCNMAYIQFDSIEQAKLAYDKGHPSWHVTLVKGKISTDMEECKVSKSILKTTPSKKANARSVSFTQTTTDTLSESEKFASNVDLDENFDFNVNVTNEDAKQLKKSVIGSSWTTVNNDWNSVSKSDQTFENDGASKVVPAGNITLNSDNSLHHSISESEDLSSASTLSDYFRFVLRVGKSLYYAGELSFDISKLKAETEHQQLLRSLVSCKQVDVLRFVTSQYLEVFGTCLTKVLSGSLCIRSDVDMTHFKNILNRGNGAGIVLGSNYTLLLFTEDNNALMNLYDCQGQSNSPFWMVIFEPLESILVEWSAKNLRPKKPYHKSQSYLSYLLQLGHIDLHKIGAFQATQILIVSKQPSPEAEELEDTFREAAIPTFRGLEIPESLFLSQNVFVFLNVSLEDDFDQLQFLTLAKRKSCKFFLFGLSLPLKSPNDSHVGTDFKKNNEPLDKLTYSQYLRPMFPKGGVVSVTLSALIKTPRLLELISPFLEIKKDSWILILPPSIVDMVKSYFVTNNPDKSLLEIQNLLNTLQRYLTNPALKNVTLYQDWDIVIDDSADVSLASTLQLYQKKNYDKYRRFVLIHELKNELTPVNGLDIVDYDEFKETFMRAIGLK
– | binds | spPrp16p-HA (protein, UniProt Q9P774 1-1173) MLSHNQNDLLFTKLIDKLTDYMSSKDAATSLASRVLTIAKGSSSSTEFSNALHTFGRFSDNDSVLIYDLCKSIIGLETNLGISKDKLPGNDGSQVAGLVLSNRSGLKGREPKKSQLGLDVLAVQKKKEKSQVEGRSELSQVENDSLESIGNYDRVEFKRPKNPHEKHFRPLRQRSSVDDHQEFESEDDKYRRNSYSSWSGSNFESSNGSNRRRYRTQMEEPLSSKRRNRFGNGSRRDVDSSKYSHDSDYSYGAHSSWDARDVEYPEEDPESKADRQRWEEEQAHLDRDWYMNSESQNLLGDEVHNPFSDFETVEDRAHEAEFIEKQKKHLSIEASDRFKENSMWEKNRMITSGVSKAPGLESDYSLMEERRVHLLVDELRPHFLDGAEFSSKKVGDITSVRDPQSDLAINARLGSRLVRERREFRERQKAASAATSLAGTSLGNVMGLKDSNDEDAKAGTTPVKVAGRSEQSNKKDTEFARTKSYREQREFLPAFAVREQLLSVIRDNQVLIVVGETGSGKTTQLAQFLYEDGYHRNGMIGCTQPRRVAAMSVAKRVSEEMGVRLGSTVGYSIRFEDVTGPDTVIKYMTDGVLLRESLMQNNLEKYSVIIMDEAHERSLNTDILMGLLKKVLSRRRDIKLLVTSATMNSQKFSDFFGGAPQFTIPGRTYPVDIMFAKAPCSDYVEAAVRQVLQIHLSQPAGDILVFMTGQEDIEATCEIIADRLNQLHDAPRLSILPIYSQMPADLQAKIFDSAEPGVRKVVVATNIAETSLTVHGISYVVDTGYCKLKMYNSKLGIDTLQVTPISQANANQRAGRAGRTGPGIAYRLYTEMAYIREMFETTLPEIQRTNLSNTVLILKSLGVEEISDFDFMDRPPNDTLMASLYELWTLGALDNFGKLTTLGKKMSLFPMDPSLSKLIIIAEDYKCTEEIITIVSMLSVPSVFYRPKERAEESDAAREKFNVPESDHLMLLNIYQHWQRNGYSNSWCSKHFLHSKTLKRARDIRQQLVEIMSKQKISLESVSDWDIVRRVLCSAYFHQAACAKGIGEYVHLRSGMPCHLHVTSSLYGLGYLPDYVIYHELVLTSKEYMNIVTSVDPYWLAEFGGVYYSVKERFRNETESYDRVFSSKPQLDAQIAADRELDAKQKLAKNQEPVKSKRKSVIRAKPPRRVRGF
